Data: patent publication US10022341B2, “Methods of preventing neurodegeneration of association cortex in a mammal” (YALE UNIVERSITY, priority 2014, dated 2018)
At least one structure is not confirmed: it was looked up by name or label, or the drawing left a doubt.

Key:
[1] = tested on: dlPFC neurons (Delay cells); test: Iontophoresis of drug onto dlPFC Delay cells during the ODR spatial working memory task (electrophysiological recordings); type: in vivo, rhesus macaques; conditions: for delay-related firing of a dlPFC Delay cell vs control: preferred direction; for task-related firing of dlPFC neurons: FIG. 3E
[2] = tested on: pS214-tau in mouse primary cortical neurons; test: pSer214 phosphorylation assay in cultured neurons (immunoblot); type: cell-based; conditions: 100-1000 nM, 10 min, F(4,60)=8.920, p<0.0001
Description: FIG. 15 is a series of immunoblots illustrating the effect of PDE4 inhibition on phosphorylation of tau at Serine 214. Mouse primary cortical neurons between 7-11 days in vitro were preincubated with 10 μM rolipram or vehicle for 10 min, before being subjected to treatment with varying nM concentrations of forskolin (as indicated). Following this treatment, cells were lysed in 1% SDS with protease and phosphatase inhibitors (Complete Mini, Roche and PhosStop, Roche), and heated to 70° C. to prevent further phosphatase activity. Samples were quantified by BCA assay, and analyzed by imunoblotting. Blots were labeled for pSer214-tau (Abcam, 4846), total tau (EMD Millipore, clone 5E2) and GAPDH (Advanced Immunochemical, mAb 6C5). Bands were quantified using Image J, and total tau signals were normalized by GAPDH. p-Tau signals were then normalized to total tau signals.
Primary cortical neurons were prepared from P1 C57Bl/6 mice. One day prior to neuron production, plates were coated overnight with Poly-D-Lysine solution (Sigma). […]
Assays were performed on primary cortical neurons between 7-11 days in vitro. […] Samples were quantified by BCA assay, and analyzed by immunoblotting. In this instance, band intensity was quantified using ImageJ, and significance assessed by 2 way ANOVA using Graph Pad Prism software.

CCOC(=O)c1cnc2c(cnn2CC)c1NN=C(C)C [etazolate]
delay-related firing of a dlPFC Delay cell vs control ([1]; aged monkey (21 yrs), 5 nA, FIG. 10E): did not significantly alter delay-related firing
delay-related firing of a dlPFC Delay cell vs control ([1]; aged monkey (21 yrs), 25 nA, FIG. 10E): significantly reduced firing
task-related firing of dlPFC neurons ([1]; aged monkeys, low doses 5-10 nA iontophoresis): but not aged monkeys
potency of effects on dlPFC neurons, young vs aged monkeys ([1]; spatial working memory task, FIGS. 10A-10E): more potent effects on dlPFC neurons of young than aged monkeys
task-related firing of dlPFC neurons ([1]; young and aged monkeys, all neurons (n=39), high dose 25 nA): reduced firing in all neurons
delay-related firing of a dlPFC Delay cell vs control ([1]; young monkey (9 yrs), 5 nA, FIG. 10D): significantly reduced delay-related firing
task-related firing of dlPFC neurons ([1]; young monkeys, low doses 5-10 nA iontophoresis): decreased task-related firing

C=C[C@@]1(C)CC(=O)[C@]2(O)[C@@]3(C)[C@@H](O)CCC(C)(C)[C@@H]3[C@H](O)[C@H](OC(C)=O)[C@@]2(C)O1 [forskolin]
pS214-tau level [2]: dose-related increase in pS214-tau
